Reference: article PMC8103094, “Androgen receptor (AR) antagonism triggers acute succinate‐mediated adaptive responses to reactivate AR signaling”
The exact form of at least one protein or probe is not confirmed. The comparison behind a weaker result is the experiment's own reference, which may not be listed here. Where a protein sequence is shown, tags need not be part of it.

Biological target: T1, Androgen receptor DNA-binding domain (AR-DBD) (UniProt P10275)
T1 sequence (looked up, limits assumed): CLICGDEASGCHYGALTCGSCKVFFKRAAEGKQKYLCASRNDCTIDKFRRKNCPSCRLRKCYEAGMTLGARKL
Assay: EMSA
Settings: Odyssey infrared EMSA kit (LI-COR): 2.5 mM DTT/0.25% Tween 20, poly(dI.dC), room temperature 30 min, increasing protein; 6% TBE native gel; salt and pH not stated; recombinant protein; label: 5' IRDye700 on both strands

Row | Sequence | binding result
1 | GCGACTTACATTGGCTGAGGGA (double strand) [SDHA ARE mutant probe (SDHA-M)] | binds more weakly
2 | AGAGCTCCCTACGTTTTCCCAACA (double strand) [SDHB ARE mutant probe (SDHB-M)] | binds more weakly
